No constants are given. Whether binding was seen depends on the method and setting. In cells and extracts the contact can be indirect. Some entries that bind do so weakly or less than the wild type. Where a sequence is shown, tags or fusion partners need not be part of it.

By UniProt entry, the sequences of proteins in these tests, tags left out.
UniProt Q92769: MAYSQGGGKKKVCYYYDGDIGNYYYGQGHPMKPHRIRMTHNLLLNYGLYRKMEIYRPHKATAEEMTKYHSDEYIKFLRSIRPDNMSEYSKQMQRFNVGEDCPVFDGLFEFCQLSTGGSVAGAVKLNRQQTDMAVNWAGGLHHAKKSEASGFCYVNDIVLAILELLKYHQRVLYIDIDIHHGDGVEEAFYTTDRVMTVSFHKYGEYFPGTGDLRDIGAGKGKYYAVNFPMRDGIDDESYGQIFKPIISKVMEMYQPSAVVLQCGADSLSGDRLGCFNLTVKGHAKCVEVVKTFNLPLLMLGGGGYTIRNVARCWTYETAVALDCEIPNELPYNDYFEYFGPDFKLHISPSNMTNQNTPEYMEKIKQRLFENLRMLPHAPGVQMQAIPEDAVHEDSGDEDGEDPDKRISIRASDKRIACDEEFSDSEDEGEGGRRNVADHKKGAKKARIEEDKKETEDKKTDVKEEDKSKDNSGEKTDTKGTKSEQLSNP
UniProt Q13547: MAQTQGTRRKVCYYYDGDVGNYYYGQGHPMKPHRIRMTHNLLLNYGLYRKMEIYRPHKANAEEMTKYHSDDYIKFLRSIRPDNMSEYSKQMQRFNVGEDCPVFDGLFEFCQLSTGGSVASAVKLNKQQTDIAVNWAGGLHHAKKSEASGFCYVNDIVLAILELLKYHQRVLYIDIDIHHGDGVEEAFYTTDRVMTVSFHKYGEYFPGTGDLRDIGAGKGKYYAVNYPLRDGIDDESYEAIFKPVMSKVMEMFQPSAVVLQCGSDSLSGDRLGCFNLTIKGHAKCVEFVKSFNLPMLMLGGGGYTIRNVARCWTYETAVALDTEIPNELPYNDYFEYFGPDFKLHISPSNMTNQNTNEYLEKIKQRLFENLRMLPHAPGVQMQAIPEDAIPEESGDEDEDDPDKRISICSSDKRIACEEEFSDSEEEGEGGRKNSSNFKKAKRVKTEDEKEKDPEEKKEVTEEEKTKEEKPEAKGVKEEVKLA

In the assay the target is T1, V5-tagged full-length murine ARID5B (murine) (UniProt Q8BM75).
T1 sequence: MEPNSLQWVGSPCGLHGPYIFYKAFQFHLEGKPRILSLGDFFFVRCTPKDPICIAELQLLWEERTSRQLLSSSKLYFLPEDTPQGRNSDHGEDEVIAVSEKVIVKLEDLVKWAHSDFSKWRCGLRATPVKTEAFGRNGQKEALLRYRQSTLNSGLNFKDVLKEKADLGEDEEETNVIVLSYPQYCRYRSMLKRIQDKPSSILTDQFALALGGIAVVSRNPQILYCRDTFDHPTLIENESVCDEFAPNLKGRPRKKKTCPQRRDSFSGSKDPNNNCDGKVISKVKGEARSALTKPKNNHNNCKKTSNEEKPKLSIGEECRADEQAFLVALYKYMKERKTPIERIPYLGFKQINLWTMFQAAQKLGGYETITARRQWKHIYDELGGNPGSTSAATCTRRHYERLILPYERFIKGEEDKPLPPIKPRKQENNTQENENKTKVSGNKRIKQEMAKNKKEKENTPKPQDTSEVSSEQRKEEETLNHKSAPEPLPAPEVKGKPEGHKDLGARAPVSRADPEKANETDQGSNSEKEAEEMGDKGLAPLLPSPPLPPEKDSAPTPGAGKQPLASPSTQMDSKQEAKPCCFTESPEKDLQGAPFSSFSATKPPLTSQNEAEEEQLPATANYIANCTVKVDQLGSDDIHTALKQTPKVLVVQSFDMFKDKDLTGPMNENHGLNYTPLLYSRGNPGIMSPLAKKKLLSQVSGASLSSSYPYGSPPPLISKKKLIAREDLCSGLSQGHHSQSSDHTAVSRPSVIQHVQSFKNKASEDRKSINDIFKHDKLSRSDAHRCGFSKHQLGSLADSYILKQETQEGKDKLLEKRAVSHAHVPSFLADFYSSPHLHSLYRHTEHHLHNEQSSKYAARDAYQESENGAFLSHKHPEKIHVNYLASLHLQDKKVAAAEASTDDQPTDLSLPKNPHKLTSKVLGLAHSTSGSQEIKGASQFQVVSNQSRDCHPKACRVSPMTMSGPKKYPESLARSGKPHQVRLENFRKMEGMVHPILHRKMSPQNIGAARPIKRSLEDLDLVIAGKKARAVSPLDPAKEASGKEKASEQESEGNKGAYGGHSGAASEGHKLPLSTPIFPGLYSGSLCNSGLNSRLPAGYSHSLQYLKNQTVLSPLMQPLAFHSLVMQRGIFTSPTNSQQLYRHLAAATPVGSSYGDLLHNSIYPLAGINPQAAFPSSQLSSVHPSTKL
The experiment in a line: co-IP; V5 Sepharose beads, 1 mg HAP1 lysate in IP Lysis Buffer (50 mM Tris-HCl pH 7.5, 150 mM NaCl, 2 mM EDTA, 0.5% Triton X-100, Benzonase), overnight at 4°C; immunoblotting of HDAC1 and HDAC2.

In the case of “HDAC2 (from UniProt Q92769 1-488) (enzyme)”, the binding entry is reported as “binds”.
As for “HDAC1 (from UniProt Q13547 1-482) (enzyme)”, the entry is “binds”.
